Experimental data: PubChem BioAssay AID686943 (Drosophila RNAi Screening Center, 2013)
Screen: 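Knockdowns that increase or decrease active ERK after insulin receptor stimulation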 (primary screen). System: Drosophila S2R+ haemocyte-like cells expressing YFP-tagged ERK (Rolled). Knock-down reagent: long dsRNA against Drosophila genes. Treatment: insulin stimulation versus unstimulated cells; dose and duration not given. Detection: 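Per-plate z-scores of phospho-ERK immunostaining normalised to YFP-tagged ERK, measured with and without insulin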. Scale: replicate 1, z-score of dpERK with insulin and replicate 2, z-score of dpERK with insulin: higher = more active ERK per ERK-YFP after insulin.
The screen tested about 23,000 reagents; shown is a random part of those that have a named target and a result. 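Extra replicates exist only for a retested subset of genes; insulin dose and duration not given; both raised and lowered dpERK matter.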 Reagents against one gene are numbered here. Further read-outs or replicates are left out here. The record does not give: the amount of reagent, the time to read-out.

Against kek3 #1 the deposit lists replicate 1, z-score of dpERK with insulin 0; replicate 2, z-score of dpERK with insulin 0.64.
With knock-down of kek3 #2, the record shows replicate 1, z-score of dpERK with insulin 0.17; replicate 2, z-score of dpERK with insulin -0.03.
CG33233 gave replicate 1, z-score of dpERK with insulin 0.62; replicate 2, z-score of dpERK with insulin -0.05.
CG6553 showed replicate 1, z-score of dpERK with insulin 0.16; replicate 2, z-score of dpERK with insulin 0.32.

Individual results from the list.
Under “replicate 2, z-score of dpERK with insulin”, CG6553 shows 0.32
kek3 #1, replicate 1, z-score of dpERK with insulin: 0

The results go on:
CG32241 #1 showed replicate 1, z-score of dpERK with insulin -0.21; replicate 2, z-score of dpERK with insulin 0.38.
Silencing of CG32241 #2 resulted in: replicate 1, z-score of dpERK with insulin 0.03; replicate 2, z-score of dpERK with insulin 0.65.
With knock-down of CG2865 #1, the record shows replicate 1, z-score of dpERK with insulin -0.35; replicate 2, z-score of dpERK with insulin -0.31.
Against CG2865 #2, the entry reads replicate 1, z-score of dpERK with insulin -0.78; replicate 2, z-score of dpERK with insulin -1.16.
CG18823 scored replicate 1, z-score of dpERK with insulin -0.24; replicate 2, z-score of dpERK with insulin -0.21.
LPCAT #1 gave replicate 1, z-score of dpERK with insulin 0.52; replicate 2, z-score of dpERK with insulin 0.28.
For LPCAT #2 the deposit lists replicate 1, z-score of dpERK with insulin 0.28; replicate 2, z-score of dpERK with insulin 0.27.
Against CG8927, the entry reads replicate 1, z-score of dpERK with insulin -0.58; replicate 2, z-score of dpERK with insulin 0.32.
